Results deposited as PubChem BioAssay AID1224828 (NIAID, 2016)

Assay: 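Knock-downs that increase or decrease LPS-induced p65 nuclear translocation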 (primary screen)
Cell system: mouse RAW264.7 G9 macrophage reporter cells (GFP-p65, Tnf promoter-mCherry)
Reagent: siRNA pool against mouse genes, 100 nM
Duration: 2 days siRNA transfection, then 40 min LPS before fixation
Treatment: LPS (Salmonella minnesota R595) at 10 ng/ml
Measured: 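Imaged p65 nuclear translocation ratio, normalised to the plate median, converted to robust z-scores and averaged across two replicates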
Direction: p65 translocation robust z-score: higher = more nuclear NF-kappaB p65 after LPS than the plate median; nuclear/cytoplasmic p65 ratio: higher = more nuclear NF-kappaB p65
Call rule: 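Called active when z exceeds 3.3 or falls under -1.56 (median of Tlr4 controls), giving activity score of at least 50; no calls for control wells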
Calls: active = hit (p65 shift raised or lowered); inactive = no clear change
Here is a random part of about 17,000 reagents. 762 of them (4.5%) were called active. 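Active calls include both raised and lowered p65 entry, mostly lowered; wells with fewer than 50 cells lack a z-score.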 Raw values vary from plate to plate and are shown uncorrected. Reagents against one gene are numbered here.

gene knocked down	reagent no.	p65 translocation robust z-score	nuclear/cytoplasmic p65 ratio, rep 1	nuclear/cytoplasmic p65 ratio, rep 2	low cell count flag	Outcome
Casp8	1	0.64	1.68	1.74	enough cells to score	inactive
Or8b4	1	-0.26	1.38	1.26	enough cells to score	inactive
Acy1	1	0.62	1.71	1.72	enough cells to score	inactive
S100a4	1	0.43	1.61	1.54	enough cells to score	inactive
Slc25a24	1	-0.46	1.31	1.23	enough cells to score	inactive
Pole	1	-0.4	1.47	1.33	enough cells to score	inactive
Syt13	1		1.5	1.21	fewer than 50 cells per well; well left out of scoring	inactive
Sh3rf2	1	-0.1	1.34	1.29	enough cells to score	inactive
Mvb12b	1		1.63	1.6	fewer than 50 cells per well; well left out of scoring	inactive
Igf2bp2	1	-0.59	1.57	1.48	enough cells to score	inactive
Clock	1	-0.08	1.45	1.37	enough cells to score	inactive
Mxi1	1	-0.88	1.3	1.26	enough cells to score	inactive
Slc6a7	1	-0.91	1.37	1.07	enough cells to score	inactive
Aqp2	1	-0.62	1.5	1.55	enough cells to score	inactive
Mgat4a	1	1.07	1.55	1.51	enough cells to score	inactive
Prmt3	1	1.86	1.99	1.75	enough cells to score	inactive
Atp8a1	1	0.35	1.82	1.52	enough cells to score	inactive
B4galt7	1	-0.58	1.6	1.46	enough cells to score	inactive
Abhd12	1	0.38	1.31	1.62	enough cells to score	inactive
Sgsh	1	-1.34	1.37	1.35	enough cells to score	inactive
S100a10	1	0.64	1.58	1.63	enough cells to score	inactive
Nadsyn1	1		1.51	1.62	fewer than 50 cells per well; well left out of scoring	inactive
Rusf1	1	-0.84	1.39	1.78	enough cells to score	inactive
Fam163a	1		1.19	1.32	fewer than 50 cells per well; well left out of scoring	inactive
Cntn6	1	0.48	1.66	1.32	enough cells to score	inactive
Slc24a3	1		1.59	1.28	fewer than 50 cells per well; well left out of scoring	inactive
Ovol2	1	-0.12	1.43	1.21	enough cells to score	inactive
Fam163b	1	1.29	1.78	2	enough cells to score	inactive
Hdlbp	1	0.1	1.57	1.28	enough cells to score	inactive
Pdlim4	1	-0.04	1.39	1.46	enough cells to score	inactive
H2-K1	1	0.48	1.38	1.55	enough cells to score	inactive
H2-K1	2	-2.26	1.4	1.19	enough cells to score	active
Sp1	1	-1.55	1.33	1.33	enough cells to score	inactive
Rps3a1	1		1.38	1.2	fewer than 50 cells per well; well left out of scoring	inactive
Hivep3	1	-0.48	1.36	1.33	enough cells to score	inactive
Or3a1c	1	0.45	1.58	1.31	enough cells to score	inactive
Rspo1	1		0	1.13	fewer than 50 cells per well; well left out of scoring	inactive
Gpr150	1	-0.86	1.38	1.52	enough cells to score	inactive
Mpped1	1	1.24	1.86	1.88	enough cells to score	inactive
Tomm20	1	-1.2	1.26	1.02	enough cells to score	inactive
Eddm3b	1	-0.36	1.59	1.55	enough cells to score	inactive
Npas4	1	1.16	1.6	1.57	enough cells to score	inactive
Eefsec	1	-1.51	1.47	1.18	enough cells to score	inactive
Jsrp1	1		1.34	1.67	fewer than 50 cells per well; well left out of scoring	inactive
Srrm2	1	-0.72	1.43	1.46	enough cells to score	inactive
Msra	1	0.18	1.42	1.4	enough cells to score	inactive
Nsd2	1	-1.14	1.49	1.31	enough cells to score	inactive
Ceacam13	1	0.4	1.73	1.76	enough cells to score	inactive
Map3k20	1	-1.23	1.58	1.16	enough cells to score	inactive
Tes	1		1.16	1.11	fewer than 50 cells per well; well left out of scoring	inactive
Cdc42bpg	1		1.55	1.4	fewer than 50 cells per well; well left out of scoring	inactive
Pde12	1	0.7	1.45	1.55	enough cells to score	inactive
Sirt7	1	-0.29	1.4	1.19	enough cells to score	inactive
Stard8	1	-0.23	1.39	1.2	enough cells to score	inactive
Pla2g12a	1	0.78	1.29	1.3	enough cells to score	inactive
Il6st	1	-0.61	1.38	1.31	enough cells to score	inactive
Wnt2b	1	-0.19	1.55	1.62	enough cells to score	inactive
Pbxip1	1	-0.69	1.34	1.34	enough cells to score	inactive
Bhlhb9	1	1.32	1.56	1.65	enough cells to score	inactive

A run of entries from the list above:
gene knocked down	reagent no.	p65 translocation robust z-score	nuclear/cytoplasmic p65 ratio, rep 1	nuclear/cytoplasmic p65 ratio, rep 2	low cell count flag	Outcome
Nadsyn1	1		1.51	1.62	fewer than 50 cells per well; well left out of scoring	inactive
Rusf1	1	-0.84	1.39	1.78	enough cells to score	inactive
Fam163a	1		1.19	1.32	fewer than 50 cells per well; well left out of scoring	inactive
